Measurements: patent US20060051395A1 (AFFINERGY, published 2006)
These are yes or no findings as the source states them, for the method shown. Some binding calls cover weakened binding; strength is not graded here.

T1: Bone Morphogenic Protein 2 (BMP-2) (UniProt P12643)
T1 sequence (looked up): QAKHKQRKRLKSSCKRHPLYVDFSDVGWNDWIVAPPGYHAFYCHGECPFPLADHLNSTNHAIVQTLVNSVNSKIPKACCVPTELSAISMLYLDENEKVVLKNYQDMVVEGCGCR


Key:
[1] = target: T1, Bone Morphogenic Protein 2 (BMP-2); experiment: phage ELISA on biotinylated BMP-2 on streptavidin plates, anti-M13-HRP
[2] = target: T1, Bone Morphogenic Protein 2 (BMP-2); experiment: collagen sponge retention assay, two-dimensional dose response of IFBM and BMP (FIG. 6A-6D)
[3] = target: T1, Bone Morphogenic Protein 2 (BMP-2); experiment: phage ELISA on BMP-2, A405 against microliters of phage; order of signal at 0.10 microliters of phage (3rd of 9 lines)
[4] = target: T1, Bone Morphogenic Protein 2 (BMP-2); experiment: phage ELISA on BMP-2, A405 against microliters of phage; order of signal at 0.10 microliters of phage (1st of 9 lines)
[5] = target: T1, Bone Morphogenic Protein 2 (BMP-2); experiment: collagen sponge retention assay; IFBM premixed with BMP, sponge washed, retained BMP detected with anti-BMP antibody (FIG. 5)
[6] = target: T1, Bone Morphogenic Protein 2 (BMP-2); experiment: phage ELISA on BMP-2, A405 against microliters of phage; order of signal at 0.10 microliters of phage (4th of 9 lines)
[7] = target: T1, Bone Morphogenic Protein 2 (BMP-2); experiment: phage ELISA on BMP-2, A405 against microliters of phage; order of signal at 0.10 microliters of phage (2nd of 9 lines)

binding [1] | Binder | also measured
binds | SRVEGGAWQALAGLTVERVSR [AP02-08] | 
binds | SSSMPVGWDSWRGLEWSDRSR [AP02-02] | 
binds | SSGQGETWEWFAGMRGSVASR [AP02-25] | 
 | SSFEPLRFPLKGVPVSRGSSGKDVNSIWMSRVIEWTYDS (C-terminal amide (-NH2)) [IFBM AFF7005 (2009-0016)] | binding [2]: binds
binds | SSGRYVSLPLKGEVVPQTASR [AP02-41] | binding [3]: binds
 | SSSVDLYFPLKGDVVSRGSSGKDVNSIWMSRVIEWTYDS (C-terminal amide (-NH2)) [IFBM AFF7009 (2012-0016)] | binding [2]: binds
binds | SSSSSGTWQAFTGLSGERVSR [AP02-11] | 
binds | SSFEPLRFPLKGVPVSR [AP02-60] | 
 | SSGAWESFSSLSGSS [AP02-61] | binding [4]: binds
binds | SSEAGRGWEGFKALEGYQVSR [AP02-18] | 
binds | SSWGLASEASFFSFSALSSSR [AP02-57] | 
binds | SRVDSVNFPLRGETVTSMVSR [AP02-43] | 
binds | SSERGVGWEVFLAMEGARMSR [AP02-10] | 
binds | SRVAAVSWEFFGSLSSAGVSR [AP02-22] | 
binds | SSPPKHAWGSFDALGGQVVSR [AP02-09] | 
binds | SSGGFVPFPLRGEVWDGVHSR [AP02-30] | 
binds | SSGLALGLPIKGWTVSGKDSR [AP02-38] | 
binds | SREGVAWEAFGALSSFAADSR [AP02-56] | 
binds | SSVAWDAFTVFESLEGVATSR [AP02-20] | 
 | DVNSIWMSRVIEWTYDSGSSGKSRSSDSAFSSFSALEGSVVSR (C-terminal amide (-NH2)) [IFBM AFF7008 (0016-2006)] | binding [5]: binds

binding [1] | Binder | also measured
binds | SSGADFGYGSWVSFSALSASR [AP02-46] | 
 | DVNSIWMSRVIEWTYDSGSSGKSSSVDLYFPLKGDVVSR (C-terminal amide (-NH2)) [IFBM AFF7010 (0016-2012)] | binding [2]: binds; binding [5]: binds
binds | SSEGSLSFPLKGQVYSGWGSR [AP02-31] | 
binds | SREDGGRWESFLGLSAVEVSR [AP02-06] | 
binds | SSYFDVFSSMTGTRAAGSWSR [AP02-26] | binding [6]: binds
binds | SSSPGGGSGGWDAFYSLVGSR [AP02-12] | 
 | DVNSIWMSRVIEWTYDSGSSGKSSDWGVVASAWDAFEALDASR (C-terminal amide (-NH2)) [IFBM AFF7017 (0016-2011)] | binding [5]: binds
binds | SSLGQTGWEAFESLSGTRGSR [AP02-19] | 
binds | SSGGGGGGEGFSSLSGNGRSR [AP02-13] | 
binds | SSTGGGSWEEFKAMTPSWTSR [AP02-14] | 
binds | SSVAGDVGSSWAAFASLAASR [AP02-53] | 
binds | SRGEALGFPLTGQLMEAAESR [AP02-33] | 
binds | SSGPALRLPLRGTVVSDVPSR [AP02-36] | 
binds | SREGAAWDSFFALSGGSAASR [AP02-58] | 
binds | SSGYTLGFPLSGQTIKDWPSR [AP02-39] | 
binds | SSSKVAPSGEWRSFATLEVSR [AP02-17] | 
binds | SSSSGAVSSFESLSGSVVSSR [AP02-55] | 
binds | SSGGGGAWESWRGLSGVELSR [AP02-04] | 
binds | SSEGSGLWDSFSSLSVHEVSR [AP02-15] | 
binds | SSMWDVGFPLKGRWIDGADSR [AP02-34] | 

binding [1] | Binder | also measured
binds | SSGKPLEFPLRGTLAEWPVSR [AP02-32] | 
binds | SRVSGVAAWEAFAGLSVSSSR [AP02-51] | 
binds | SSGVTQESASWSSFRTLAVSR [AP02-16] | 
binds | SSVGQMGWEAFESLSGTGGSR [AP02-24] | 
binds | SRNVEGSWESFAGLSHVRESR [AP02-05] | 
binds | SSEGWVHFPLKGDVMGGPFSR [AP02-40] | binding [7]: binds
binds | SRDGGSFSAFSSLVWAADSSR [AP02-52] | 
binds | SSVEGSAWSAFKSLSSEGVSR [AP02-07] | 
binds | SRDGAGAAAWGAFSALASESR [AP02-49] | 
binds | SSAPLTESEAWRGFSKLEVSR [AP02-01] | 
binds | SSEGVGGFPLKGIPQEAWASR [AP02-28] | 
binds | SSAYSVFSSLRADNSGGAVSR [AP02-27] | 
binds | SSEGGVGFPLKGIPQEAWASR [AP02-42] | 
 | DVNSIWMSRVIEWTYDSGSSGKSSFEPLRFPLKGVPVSR (C-terminal amide (-NH2)) [IFBM AFF7006 (0016-2009)] | binding [2]: binds
binds | SSEVVEPWEWWVALERAGGSR [AP02-21] | 
binds | SSADLGVSGSWEGFALMRGSR [AP02-23] | 
binds | SSEGRGGWNSWEAFRELVVSR [AP02-03] | 
binds | SRGEASGWEAFSALEAAVVSR [AP02-47] | 
